Our source for the binding values is paper PMC12570517.

Protein sequences, listed by entry. Tags and fused reporters are not part of them.
UniProt P49407: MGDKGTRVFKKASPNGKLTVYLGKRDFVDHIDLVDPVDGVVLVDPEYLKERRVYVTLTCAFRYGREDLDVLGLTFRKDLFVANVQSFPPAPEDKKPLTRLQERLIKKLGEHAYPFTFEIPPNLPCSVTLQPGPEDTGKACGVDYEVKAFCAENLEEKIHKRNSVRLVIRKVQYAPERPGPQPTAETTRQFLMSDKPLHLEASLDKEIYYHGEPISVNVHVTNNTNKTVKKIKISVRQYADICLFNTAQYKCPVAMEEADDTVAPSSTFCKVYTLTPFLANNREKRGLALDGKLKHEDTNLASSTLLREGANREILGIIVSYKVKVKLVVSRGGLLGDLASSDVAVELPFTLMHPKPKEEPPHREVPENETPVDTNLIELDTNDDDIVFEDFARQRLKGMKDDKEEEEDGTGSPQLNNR
UniProt O00459: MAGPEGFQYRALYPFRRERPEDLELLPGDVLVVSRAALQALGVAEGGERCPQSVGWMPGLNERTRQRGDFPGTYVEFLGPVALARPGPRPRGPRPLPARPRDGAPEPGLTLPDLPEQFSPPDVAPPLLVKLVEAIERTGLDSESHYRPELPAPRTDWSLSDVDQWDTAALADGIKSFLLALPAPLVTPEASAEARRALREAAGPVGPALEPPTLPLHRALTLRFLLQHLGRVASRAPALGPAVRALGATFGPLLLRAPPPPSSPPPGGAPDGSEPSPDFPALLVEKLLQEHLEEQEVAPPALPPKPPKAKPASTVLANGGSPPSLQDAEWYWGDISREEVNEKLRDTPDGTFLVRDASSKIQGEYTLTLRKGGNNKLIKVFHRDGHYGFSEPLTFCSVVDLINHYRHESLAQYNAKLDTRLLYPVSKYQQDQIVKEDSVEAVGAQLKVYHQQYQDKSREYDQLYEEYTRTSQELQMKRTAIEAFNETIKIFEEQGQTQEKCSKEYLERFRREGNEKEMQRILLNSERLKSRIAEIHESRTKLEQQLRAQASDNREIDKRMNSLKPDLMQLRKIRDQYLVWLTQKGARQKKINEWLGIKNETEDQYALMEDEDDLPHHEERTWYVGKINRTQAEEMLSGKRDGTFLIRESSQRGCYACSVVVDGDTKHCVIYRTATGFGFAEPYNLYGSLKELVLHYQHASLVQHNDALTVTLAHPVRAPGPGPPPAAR

Results are given in words; binding and its absence hold for the method and conditions named. Binding seen in cells or lysates may run through a third protein. Some entries that bind do so weakly or less than the wild type.

The assay addresses V5–β-arrestin1 (UniProt P49407). The experiment in a line: co-IP; lysates of transiently transfected HEK293T cells co-expressing Flag-CCR5, V5–β-arrestin1 and HA-p85α/HA-p85β, in the presence of CCL5; lysis in 20 mM Tris-HCl, 150 mM NaCl, 1 mM EDTA, 1% NP-40; antibody or IgG 12 h at 4 °C, protein A/G magnetic beads; samples without β-arrestin1 also run.

For the substance HA-p85β (from UniProt O00459 1-728), the binding entry was “binds”.
